Some results were stated once for a whole list of compounds, not compound by compound. At least one compound was matched to its structure with a doubt left.
System: IL-2 production
Test: IL-2 production by PHA/PMA stimulated PBMCs (ELISA)
Type: cell-based, human
Settings: 18 h incubation
Description: The PBMCs were cultured in a 96-well flat-bottomed plate (1.0×10^5 cell/well) in the presence or absence of three concentrations of test compounds (1.0, 5.0 and 20 μg/mL), and phytohemagglutinin (PHA) phorbol myristate acetate (PMA) in a final concentration of 5 ng/mL and 20 ng/mL, respectively. After an incubation period of 18 h at 37° C. in a humidified atmosphere of 5% CO2 in air, the supernatant was collected for IL-2 determination. Interleukin-2 levels were measured by using enzyme-linked immunosorbent assay (ELISA) development kit (R&D systems, Minneapolis, Minn., USA). The assay was performed according to the manufacturer's instructions. Briefly, a 96-well flat-bottomed ELISA plate was coated with 4.0 μg/mL mouse anti-human IL-2, in PBS, pH 7.4. Then, re-combinant human IL-2 standards and culture supernatant samples were added and incubated for 2 h followed by washing steps and then the addition of biotinylated goat anti-human IL-2. After an incubation period of 2 h at room temperature, the plates were again washed and streptavidin conjugated horse raddish peroxidase was added and incubated for additional 20 min at room temperature. […] The plates were then read at 450 nm in a plate reader (DIAReader GMBH, Wr. Neudorf, Austria). The results were analyzed using Microsoft Excel.

Row | SMILES | IC50 IL-2 production [µg/mL]
1 | COc1cccc(-c2nc3ccccc3s2)c1O [Compound 2] | <1.0 to 2.9
2 | Oc1ccc(O)c(-c2nc3ccccc3s2)c1 [Compound 8] | <1.0 to 2.9

Reference: patent publication US20140378515A1, “IMMUNOSUPPRESSIVE COMPOUNDS” (priority 2013, published 2014)
